Values of other authors as cited in patent US8293900B2, “Acylated spiropiperidine derivatives as melanocortin-4 receptor modulators” (Merck Sharp & Dohme Corp, priority 2005, dated 2012).
Some entries share one result that the patent states for a list of compounds. Some ranges recur; such a range may be that of the whole group of compounds.

Compound: CCCCCCCCCCC[C@@H](C[C@@H]1OC(=O)[C@H]1CCCCCC)OC(=O)[C@H](CC(C)C)NC=O [orlistat]
- weight loss, of body weight for drug compared to placebo (monotherapy for obesity): 5%-10%
- reduction of body weight (over a 6 month or a 1 year period): less than 10%
